Data as given in PMC11189558, “Mutations found in cancer patients compromise DNA binding of the winged helix protein STK19”.
Changes are numbered by the printed parent chain. For some of these results: Weaker means in comparison with the reference protein, sequence or condition of that experiment. Where a protein sequence is shown, tags need not be part of it. For some of these results: The exact form of at least one protein or probe is not confirmed. For some of these results: At least one verdict rests on a figure or table, not on a statement of the authors.

What was measured:
Experiment in all cases: EMSA
STK19 R200W (human) = molecular target: T1, STK19 R200W (human) (UniProt P49842); conditions: n = 2; 20 mM HEPES pH 7.4, 100 mM NaCl, 1 mM MgCl2, 1 mg/ml BSA, 2 mM DTT, 5% glycerol; 30 min on ice; native 5% PAGE in 1X TBE; recombinant protein; residues 31-254; protein details: GST cleaved, GPLGS left at N-terminus
T1 sequence (looked up): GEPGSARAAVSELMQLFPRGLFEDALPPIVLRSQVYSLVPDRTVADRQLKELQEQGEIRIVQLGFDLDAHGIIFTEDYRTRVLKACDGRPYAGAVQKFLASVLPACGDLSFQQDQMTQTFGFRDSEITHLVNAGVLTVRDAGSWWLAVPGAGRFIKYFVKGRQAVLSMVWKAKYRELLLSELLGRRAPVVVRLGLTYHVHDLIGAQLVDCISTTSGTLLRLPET

STK19 K186N (human) = molecular target: T2, STK19 K186N (human) (UniProt P49842); conditions: n = 2; 20 mM HEPES pH 7.4, 100 mM NaCl, 1 mM MgCl2, 1 mg/ml BSA, 2 mM DTT, 5% glycerol; 30 min on ice; native 5% PAGE in 1X TBE; recombinant protein; residues 31-254; protein details: GST cleaved, GPLGS left at N-terminus
T2 sequence (looked up): T1 sequence (looked up) with K156N, W170R

STK19 R215W (human) = molecular target: T3, STK19 R215W (human) (UniProt P49842); conditions: n = 2; 20 mM HEPES pH 7.4, 100 mM NaCl, 1 mM MgCl2, 1 mg/ml BSA, 2 mM DTT, 5% glycerol; 30 min on ice; native 5% PAGE in 1X TBE; recombinant protein; residues 31-254; protein details: GST cleaved, GPLGS left at N-terminus
T3 sequence (looked up): T1 sequence (looked up) with W170R, R185W

STK19 (31-254) (human) = molecular target: T4, STK19 (31-254) (human) (UniProt P49842); conditions: 20 mM HEPES pH 7.4, 100 mM NaCl, 1 mM MgCl2, 1 mg/ml BSA, 2 mM DTT, 5% glycerol; 30 min on ice; native 5% PAGE in 1X TBE; recombinant protein; residues 31-254; protein details: GST cleaved, GPLGS left at N-terminus
T4 sequence (looked up): T1 sequence (looked up) with W170R

Sequence: GAGCTGCCGAATTCTACCAGTGCCTTGCTAGGACATCTTTGCCCACCTGCAGGTTCACC (double strand) [59 bp dsDNA]
- binding result (STK19 R200W (human)): binds more weakly
- binding result (STK19 K186N (human)): binds more weakly
- binding result (STK19 R215W (human)): binds more weakly
- binding result (STK19 (31-254) (human)): binds
